The results in this text go back to PubChem BioAssay AID248 (DTP/NCI, 2004).

The list does not hold the whole screen: it is rich in T/C values a quarter to a half above the control, in often repeated tests (any T/C) and in doses without a T/C. Other doses and runs of a compound stand elsewhere. T/C gives the treated animals as a percentage of the vehicle group. Some entries give survivors of the animals treated and no T/C: the source holds a T/C of zero for them, seemingly a mark for toxic or unscored doses. Some doses without a T/C left all or most animals alive at the check, yet need not have been tolerated: the source hardly ever lists a survival T/C far under the control, and the zero likely stands for such cases as well. Counts of survivors are from the toxicity check (mostly the fifth day) where no day follows; animals may have died later. Schedules are NCI's codes, read here as Q, the interval in days (D) or hours (H), X, the number of doses. For survival time, this PubChem deposit counts one and a half times the control or more as active, and values a quarter to a half above the control carry no call in these data; other NCI protocols may use other cut-offs.

The test has as its system L1210 leukemia ip in BDF1 mice, survival T/C. The experiment in a line: NCI In Vivo Anticancer Drug Screen. Data for tumor model L1210 Leukemia (intraperitoneal) in B6D2F1 (BDF1) mice. As to conditions: T/C endpoint: mean survival time, higher T/C = longer survival.
Setting [1] is: dose: 100.0 mg/kg/injection, schedule: Q01DX001 (ip), vehicle: saline.
[2] abbreviates: dose: 200.0 mg/kg/injection, schedule: Q01DX001 (ip), vehicle: saline.
[3] abbreviates: dose: 100.0 mg/kg/injection, schedule: Q04DX002 (ip), vehicle: saline.

For `COc1ccccc1/C=N/NC(=O)c1cccc2ccccc12`, the survivor count was 4 of 4 under setting [1] and 4 of 4 under setting [2].
Turning to `NC(CCl)=NCC1C2CC3CC(C2)CC1C3` (stereo not drawn), the survivor count by setting is: (dose: 40.0 mg/kg/injection, schedule: Q01DX009 (ip), vehicle: saline) 2 of 3; under setting [3], 0 of 3; (dose: 200.0 mg/kg/injection, schedule: Q04DX002 (ip), vehicle: saline) 0 of 3; (dose: 400.0 mg/kg/injection, schedule: Q04DX002 (ip), vehicle: saline) 0 of 3.
As for `NC(=O)c1[nH]cnc1NN=NCCCl`, the T/C is, setting by setting: (dose: 1.5 mg/kg/injection, schedule: Q01DX001 (ip), vehicle: saline with Tween-80) 138 % of control; (dose: 3.0 mg/kg/injection, schedule: Q01DX001 (ip), vehicle: saline with Tween-80) 125 % of control; (dose: 6.0 mg/kg/injection, schedule: Q01DX001 (ip), vehicle: saline with Tween-80) 148 % of control; (dose: 6.25 mg/kg/injection, schedule: Q01DX001 (ip), vehicle: saline with Tween-80) 149 % of control. The survivor count was 6 of 6 (dose: 50.0 mg/kg/injection, schedule: Q01DX009 (ip), vehicle: saline with Tween-80); 4 of 6 (dose: 100.0 mg/kg/injection, schedule: Q01DX001 (ip), vehicle: saline with Tween-80); 3 of 6 (dose: 200.0 mg/kg/injection, schedule: Q01DX001 (ip), vehicle: saline with Tween-80); 0 of 6 (dose: 400.0 mg/kg/injection, schedule: Q01DX001 (ip), vehicle: saline with Tween-80).
`CCCN1CCc2cc(OC)c(OC)cc2C1Cc1ccc(OC)c(OC)c1` (stereo not drawn): the survivor count (dose: 300.0 mg/kg/injection, schedule: Q01DX001 (ip), vehicle: other) is recorded as 0 of 6.
In the case of `c1ccc(CN2CCCCc3ccccc32)cc1`, the survivor count (dose: 400.0 mg/kg/injection, schedule: Q04DX003 (ip), vehicle: saline with Tween-80) is 3 of 6.
As to `S=C1CC2CCCC(C2)N1` (stereo not drawn), the survivor count was 3 of 6 (dose: 40.0 mg/kg/injection, schedule: Q01DX001 (ip), vehicle: carboxymethylcellulose (CMC)); 2 of 6 (dose: 100.0 mg/kg/injection, schedule: Q01DX001 (ip), vehicle: carboxymethylcellulose (CMC)); 1 of 6 (dose: 200.0 mg/kg/injection, schedule: Q01DX001 (ip), vehicle: carboxymethylcellulose (CMC)); 1 of 6 (dose: 400.0 mg/kg/injection, schedule: Q01DX001 (ip), vehicle: carboxymethylcellulose (CMC)).
Turning to `CCCCCC[n+]1cccc(C(N)=O)c1`, the survivor count (dose: 400.0 mg/kg/injection, schedule: Q04DX003 (ip), vehicle: Klucel (hydroxypropylcellulose) (HPC)) is given as 3 of 6.
In the case of `CCCCN(CCCC)C(=N)c1c(C)cc(C)cc1C`, the survivor count is recorded as 2 of 6 (dose: 20.0 mg/kg/injection, schedule: Q01DX001 (ip), vehicle: saline); 0 of 4 (dose: 50.0 mg/kg/injection, schedule: Q01DX001 (ip), vehicle: saline); 0 of 4 under setting [1]; 0 of 4 under setting [2]; 0 of 4 (dose: 400.0 mg/kg/injection, schedule: Q01DX001 (ip), vehicle: saline).
For `N#CC1c2cc(OC(=O)c3ccccc3)ccc2C=CN1C(=O)c1ccccc1` (stereo not drawn), the survivor count (dose: 400.0 mg/kg/injection, schedule: Q04DX003 (ip), vehicle: gum acacia) is given as 6 of 6.
With `CCCCCCCCCC(=O)N(CC)CC`, the survivor count under setting [3] is listed as 3 of 3.
